Reference: PMC9626565

The chains behind the UniProt entries cited, without tags or fusion partners. Where a name states a change or a piece, a line headed by the entry shows the natural chain unless it says otherwise.
UniProt Q9VAJ5: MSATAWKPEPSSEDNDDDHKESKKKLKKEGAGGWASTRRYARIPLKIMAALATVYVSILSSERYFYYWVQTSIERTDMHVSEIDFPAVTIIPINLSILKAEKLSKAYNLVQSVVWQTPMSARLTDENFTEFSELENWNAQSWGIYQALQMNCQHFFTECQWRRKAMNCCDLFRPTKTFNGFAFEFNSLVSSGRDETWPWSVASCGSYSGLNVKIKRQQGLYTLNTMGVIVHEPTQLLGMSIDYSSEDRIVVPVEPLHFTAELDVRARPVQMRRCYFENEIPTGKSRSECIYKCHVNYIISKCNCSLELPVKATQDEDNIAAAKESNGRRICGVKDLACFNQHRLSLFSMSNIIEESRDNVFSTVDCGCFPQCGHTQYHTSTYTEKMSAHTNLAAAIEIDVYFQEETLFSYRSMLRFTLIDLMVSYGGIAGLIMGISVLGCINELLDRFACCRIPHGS

Target: Ppk30 fused to the C-terminal fragment of GFP (ppk30-GFP-C) (Drosophila) (UniProt Q9VAJ5)
Assay: split reporter; fragment complementary assay (FCA) with N- and C-terminal fragments of Kusabira Green (CoralHue Fluo-chase Kit); vectors co-transfected into HEK293T cells, 48 h; fluorescence by confocal microscopy and fluorescence spectrophotometer, normalised to beta-gal activity

binding: binds
B1: Ppk19 fused to the N-terminal fragment of GFP (ppk19-GFP-N) (protein, UniProt Q9VAJ3 1-511)
chain: MLLYTKELVIPRPRPGLLRFRNNPRGIKFREKLCNSFAHSNIHGMQHVFGEQHLWQRCLWLAIVLGAVITGFSLYTVLMHRHSEQLLVSLIETTQLPVYHIDFPAVAVCPWNHFNWQRAPSAFIRFLPRHPNAELRETFRQLLASMDIMNFSNFNRIRILTKRNLTGISYLKMTDLMNFMTYRCDELFVADSCVFDETPYDCCKLFVREQTVKGQCLVFNSMISENSRKKHLINQFYPHKLSTAGEDSGLKFTINASYSFMNNIDALTPFGMNLMIKEPRQWSNEMMYHLYPDTENFVAVHPLVTETSPNTYEMSPKKRRCYFDDEKNPTFQNTSLTYNRENCLVVCLHLVVWKTCQCSLPAFLPPIDGVPECGINDAQCLGNNSDIFTYVKMGDQEKYINDSRQGHFCDCPDNCNSRLYEMSLNVRKLDYPKNSTDQLIKAQVYYGQRVMTKIITKLKYTNIDLLANFGGIISLYIGASVMSFIELLFVLGKLMWGFIRDARIKLKEYTK

No constants are given. Whether binding was seen depends on the method and setting. In cells and extracts the contact can be indirect. A result given as binding can be weak or reduced; the word gives no strength. Sequences can lack the tags named with a protein.
